SMILES strings stand for the structures.

This assay deals with F. varium KYA 8501. The experiment in a line: Antibacterial spectrum, MIC determination (method of Japan Society of Chemotherapy). It is filed as cell-based. The conditions noted are these: Fusobacterium varium, KYA8501.

As a reminder, the MIC is the smallest concentration in the dilution series that meets the test's criterion for growth inhibition. `O=C(O)c1cn(C2CC2)c2cc(N3CCNCC3)c(F)cc2c1=O` [CPFX, ciprofloxacin, reference compound] had an MIC of over 12.5 µg/mL.

The values are drawn from patent EP0207497A2, “Quinolonecarboxylic acid derivative and process for its preparation” (KYORIN PHARMACEUTICAL CO., LTD., priority 1985, dated 1987).
